Test results taken from patent publication US20100310528.
For at least one entry, the source does not settle the construct or the ends of the probe. Tags and fusion partners may be left off the protein sequences shown.

Test system: T1, R391 integrase (IntR391), native (ICE R391 (IncJ element))
T1 sequence (limits assumed): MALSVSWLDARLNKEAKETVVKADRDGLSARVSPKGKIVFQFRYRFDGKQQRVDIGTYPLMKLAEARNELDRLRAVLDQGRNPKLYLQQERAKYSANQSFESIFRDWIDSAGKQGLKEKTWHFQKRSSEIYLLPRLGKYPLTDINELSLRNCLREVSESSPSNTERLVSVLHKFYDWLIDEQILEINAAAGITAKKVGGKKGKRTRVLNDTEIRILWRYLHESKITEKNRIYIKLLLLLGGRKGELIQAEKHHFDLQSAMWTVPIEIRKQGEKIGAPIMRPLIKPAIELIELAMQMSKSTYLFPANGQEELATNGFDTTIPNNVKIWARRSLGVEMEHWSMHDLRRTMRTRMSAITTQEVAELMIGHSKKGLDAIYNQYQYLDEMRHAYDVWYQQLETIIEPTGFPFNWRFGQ
Assay: activity in cells
Conditions: integration of pBT-attP (and pSC101ts-attP) into prfC attB in E. coli after IPTG induction; junction PCR and sequencing; none without integrase; protein in cells; only the site is given

ATAAGCGAAGGACCTTTGCTATCATCTCTCACCCTGATGCCGCCCAGCCT (double strand) [attP R391]
activity on this sequence: active
